{"source": "patent US20200407452A1", "about": "(published 2020)", "binders": {"B1": {"name": "76H10 chimeric llama-human IgG1 mAb (antibody, V domains shown)", "VH": "QLQLVESGGGLVQPGGSLRVSCTASGFTFNTYYMTWVRQAPGKGLEWVSDINSGGGTYYADSVKGRFTISRDNAKNTLYLQMNSLKPEDTALYYCVRVRIWPVGYDYWGQGTQVTVSS", "VL": "QAVVTQEPSLSVSPGGTVTLTCGLSSGSVTTSNYPGWFQQTPGQAPRTLIYNTNNRHSGVPSRFSGSISGNKAALTITGAQPEDEADYYCSLYTGSYTTVFGGGTHLTVL", "notes": "human IgG1 CH1-CH2-CH3 and human CL lambda"}, "B2": {"name": "71G3 chimeric llama-human IgG1 mAb (antibody, V domains shown)", "VH": "QVQLVESGGGLVQPGGSLRVSCAASGFTFSTYYMSWVRQAPGKGLEWVSDIRTDGGTYYADSVKGRFTMSRDNAKNTLYLQMNSLKPEDTALYYCARTRIFPSGYDYWGQGTQVTVSS", "VL": "QAVVTQEPSLSVSPGGTVTLTCGLSSGSVTTSNYPGWFQQTPGQAPRTLIYNTNSRHSGVPSRFSGSISGNKAALTIMGAQPEDEADYYCSLYPGSTTVFGGGTHLTVL", "notes": "human IgG1 CH1-CH2-CH3 and human CL lambda; also called 71G3 Human IgG1/lambda"}, "B3": {"name": "71D6 chimeric llama-human IgG1 mAb (antibody, V domains shown)", "VH": "ELQLVESGGGLVQPGGSLRLSCAASGFTFSSYGMSWVRQAPGKGLEWVSAINSYGGSTSYADSVKGRFTISRDNAKNTLYLQMNSLKPEDTAVYYCAKEVRADLSRYNDYESYDYWGQGTQVTVSS", "VL": "QPVLNQPSALSVTLGQTAKITCQGGSLGARYAHWYQQKPGQAPVLVIYDDDSRPSGIPERFSGSSSGGTATLTISGAQAEDEGDYYCQSADSSGSVFGGGTHLTVL", "notes": "human IgG1 CH1-CH2-CH3 and human CL lambda; also called 71D6 Human IgG1/lambda"}, "B4": {"name": "71C3 chimeric llama-human IgG1 mAb (antibody, V domains shown)", "VH": "B3 VH with E1Q, Y32H, G33A, Y54G, V100L, A102F, S105A, N108T, S112A, Y113W", "VL": "SYELTQPSALSVTLGQTAKITCQGGSLGSSYAHWYQQKPGQAPVLVIYDDDSRPSGIPERFSGSSSGGTATLTISGAQAEDEGDYYCQSADSSGNAAVFGGGTHLTVL", "notes": "as for B1"}, "B5": {"name": "71D4 chimeric llama-human IgG1 mAb (antibody, V domains shown)", "VH": "B3 VH with S31G, A50D, Y54G, E99D, V100M, A102L, D103Y, S105A, S112A, Y113W", "VL": "B4 VL with Y2S, E3A", "notes": "as for B1"}, "B6": {"name": "71A3 chimeric llama-human IgG1 mAb (antibody, V domains shown)", "VH": "EVQLVESGGGLVQPGGSLRLSCAASGFSFKDYDITWVRQAPGKGLEWVSTITSRSGSTSYVDSVKGRFTISGDNAKNTLYLQMNSLKPEDTAVYYCAKVYATTWDVGPLGYGMDYWGKGTLVTVSS", "VL": "B4 VL", "notes": "as for B1"}, "B7": {"name": "71G2 chimeric llama-human IgG1 mAb (antibody, V domains shown)", "VH": "EVQLQESGGGLVQPGGSLRLSCAASGFTFSIYDMSWVRQAPGKGLEWVSTINSDGSSTSYVDSVKGRFTISRDNAKNTLYLQMNSLKPEDTAVYYCAKVYGSTWDVGPMGYGMDYWGKGTLVTVSS", "VL": "SSALTQPSALSVSLGQTARITCQGGSLGSSYAHWYQQKPGQAPVLVIYGDDSRPSGIPERFSGSSSGGTATLTISGAQAEDEDDYYCQSTDSSGNTVFGGGTRLTVL", "notes": "human IgG1 CH1-CH2-CH3 and human CL lambda; also called 71G2 Human IgG1/lambda"}, "B8": {"name": "76G7 chimeric llama-human IgG1 mAb (antibody, V domains shown)", "VH": "QVQLVESGGNLVQPGGSLRLSCAASGFTFSNYYMSWVRQAPGKGLEWVSDIYSDGSTTWYSDSVKGRFTISRDNAKNTLSLQMNSLKSEDTAVYYCARVKIYPGGYDAWGQGTQVTVSS", "VL": "QAGLTQPPSVSGSPGKTVTISCAGNSSDVGYGNYVSWYQQFPGMAPKLLIYLVNKRASGITDRFSGSKSGNTASLTISGLQSEDEADYYCASYTGSNNIVFGGGTHLTVL", "notes": "as for B1"}, "B9": {"name": "72F8 chimeric llama-human IgG1 mAb (antibody, V domains shown)", "VH": "ELQLVESGGGLVQPGGSLRLSCAASGFTFSNYVMSWVRQAPGKGLEWVSDTNSGGSTSYADSVKGRFTISRDNAKNTLYLQMNSLKPEDTALYYCARSFFYGMNYWGKGTQVTVSS", "VL": "QSALTQPPSLSASPGSSVRLTCTLSSGNNIGSYDISWYQQKAGSPPRYLLNYYTDSRKHQDSGVPSRFSGSKDASANAGLLLISGLQPEDEADYYCSAYKSGSYRWVFGGGTHVTVL", "notes": "as for B1"}}, "note": "Where a chain is given by its changes, count along the chain named. No constants are given. Whether binding was seen depends on the method and setting. For part of these data: Binding calls can cover weak binding; strength is not graded here.", "data": [{"target": "T1, human MET ECD (human, UniProt P08581 25-932)", "T1 construct": "range 1-932; recombinant; range as printed includes the signal peptide; also called hMET; hMET ECD", "assay": "ELISA, MET ECD coated", "values": [{"binder": "B1", "binding": "binds"}, {"binder": "B2", "binding": "binds"}, {"binder": "B3", "binding": "binds"}, {"binder": "B4", "binding": "binds"}, {"binder": "B5", "binding": "binds"}, {"binder": "B6", "binding": "binds"}, {"binder": "B7", "binding": "binds"}, {"binder": "B8", "binding": "binds"}, {"binder": "B9", "binding": "binds"}]}, {"target": "T2, mouse MET ECD (mouse, UniProt P16056 25-931)", "T2 construct": "range 1-931; recombinant; range as printed includes the signal peptide; also called mMET; mMET ECD", "assay": "ELISA, MET ECD coated", "values": [{"binder": "B1", "binding": "binds"}, {"binder": "B2", "binding": "binds"}, {"binder": "B3", "binding": "binds"}, {"binder": "B4", "binding": "binds"}, {"binder": "B5", "binding": "binds"}, {"binder": "B6", "binding": "binds"}, {"binder": "B7", "binding": "binds"}, {"binder": "B8", "binding": "binds"}, {"binder": "B9", "binding": "binds"}]}, {"target": "llama MET ECD (llama)", "assay": "ELISA, MET protein coated", "values": [{"binder": "B1", "binding": "no binding (tested: 0-20 nM)"}, {"binder": "B2", "binding": "no binding (tested: 0-20 nM)"}, {"binder": "B3", "binding": "no binding (tested: 0-20 nM)"}, {"binder": "B4", "binding": "no binding (tested: 0-20 nM)"}, {"binder": "B5", "binding": "no binding (tested: 0-20 nM)"}, {"binder": "B6", "binding": "no binding (tested: 0-20 nM)"}, {"binder": "B7", "binding": "no binding (tested: 0-20 nM)"}, {"binder": "B8", "binding": "no binding (tested: 0-20 nM)"}, {"binder": "B9", "binding": "no binding (tested: 0-20 nM)"}]}, {"target": "llama-human MET chimeric protein CH3", "assay": "ELISA, MET protein coated", "values": [{"binder": "B9", "binding": "no binding (tested: 0-20 nM)"}]}, {"target": "llama-human MET chimeric protein CH4", "assay": "ELISA, MET protein coated", "values": [{"binder": "B3", "binding": "no binding (tested: 0-20 nM)"}, {"binder": "B4", "binding": "no binding (tested: 0-20 nM)"}, {"binder": "B5", "binding": "no binding (tested: 0-20 nM)"}, {"binder": "B6", "binding": "no binding (tested: 0-20 nM)"}, {"binder": "B7", "binding": "no binding (tested: 0-20 nM)"}, {"binder": "B9", "binding": "no binding (tested: 0-20 nM)"}]}, {"target": "llama-human MET chimeric protein CH5", "assay": "ELISA, MET protein coated", "values": [{"binder": "B3", "binding": "no binding (tested: 0-20 nM)"}, {"binder": "B4", "binding": "no binding (tested: 0-20 nM)"}, {"binder": "B5", "binding": "no binding (tested: 0-20 nM)"}, {"binder": "B6", "binding": "no binding (tested: 0-20 nM)"}, {"binder": "B7", "binding": "no binding (tested: 0-20 nM)"}, {"binder": "B9", "binding": "no binding (tested: 0-20 nM)"}]}, {"target": "llama-human MET chimeric protein CH6", "assay": "ELISA, MET protein coated", "values": [{"binder": "B1", "binding": "no binding (tested: 0-20 nM)"}, {"binder": "B2", "binding": "no binding (tested: 0-20 nM)"}, {"binder": "B8", "binding": "no binding (tested: 0-20 nM)"}]}, {"target": "llama-human MET chimeric protein CH7", "assay": "ELISA, MET protein coated", "values": [{"binder": "B1", "binding": "no binding (tested: 0-20 nM)"}, {"binder": "B2", "binding": "no binding (tested: 0-20 nM)"}, {"binder": "B8", "binding": "no binding (tested: 0-20 nM)"}]}, {"target": "T1, human MET ECD", "assay": "ELISA, MET protein coated, mAb 0-20 nM", "values": [{"binder": "B1", "binding": "binds"}, {"binder": "B2", "binding": "binds"}, {"binder": "B3", "binding": "binds"}, {"binder": "B4", "binding": "binds"}, {"binder": "B5", "binding": "binds"}, {"binder": "B6", "binding": "binds"}, {"binder": "B7", "binding": "binds"}, {"binder": "B8", "binding": "binds"}, {"binder": "B9", "binding": "binds"}]}, {"target": "llama-human MET chimeric protein CH1", "assay": "ELISA, MET protein coated, mAb 0-20 nM", "values": [{"binder": "B1", "binding": "binds"}, {"binder": "B2", "binding": "binds"}, {"binder": "B3", "binding": "binds"}, {"binder": "B4", "binding": "binds"}, {"binder": "B5", "binding": "binds"}, {"binder": "B6", "binding": "binds"}, {"binder": "B7", "binding": "binds"}, {"binder": "B8", "binding": "binds"}, {"binder": "B9", "binding": "binds"}]}, {"target": "llama-human MET chimeric protein CH2", "assay": "ELISA, MET protein coated, mAb 0-20 nM", "values": [{"binder": "B1", "binding": "binds"}, {"binder": "B2", "binding": "binds"}, {"binder": "B3", "binding": "binds"}, {"binder": "B4", "binding": "binds"}, {"binder": "B5", "binding": "binds"}, {"binder": "B6", "binding": "binds"}, {"binder": "B7", "binding": "binds"}, {"binder": "B8", "binding": "binds"}, {"binder": "B9", "binding": "binds"}]}, {"target": "llama-human MET chimeric protein CH3", "assay": "ELISA, MET protein coated, mAb 0-20 nM", "values": [{"binder": "B1", "binding": "binds"}, {"binder": "B2", "binding": "binds"}, {"binder": "B3", "binding": "binds"}, {"binder": "B4", "binding": "binds"}, {"binder": "B5", "binding": "binds"}, {"binder": "B6", "binding": "binds"}, {"binder": "B7", "binding": "binds"}, {"binder": "B8", "binding": "binds"}]}, {"target": "llama-human MET chimeric protein CH4", "assay": "ELISA, MET protein coated, mAb 0-20 nM", "values": [{"binder": "B1", "binding": "binds"}, {"binder": "B2", "binding": "binds"}, {"binder": "B8", "binding": "binds"}]}, {"target": "llama-human MET chimeric protein CH5", "assay": "ELISA, MET protein coated, mAb 0-20 nM", "values": [{"binder": "B1", "binding": "binds"}, {"binder": "B2", "binding": "binds"}, {"binder": "B8", "binding": "binds"}]}, {"target": "llama-human MET chimeric protein CH6", "assay": "ELISA, MET protein coated, mAb 0-20 nM", "values": [{"binder": "B3", "binding": "binds"}, {"binder": "B4", "binding": "binds"}, {"binder": "B5", "binding": "binds"}, {"binder": "B6", "binding": "binds"}, {"binder": "B7", "binding": "binds"}, {"binder": "B9", "binding": "binds"}]}, {"target": "llama-human MET chimeric protein CH7", "assay": "ELISA, MET protein coated, mAb 0-20 nM", "values": [{"binder": "B3", "binding": "binds"}, {"binder": "B4", "binding": "binds"}, {"binder": "B5", "binding": "binds"}, {"binder": "B6", "binding": "binds"}, {"binder": "B7", "binding": "binds"}, {"binder": "B9", "binding": "binds"}]}]}
